PubChem BioAssay AID743454, Peter MacCallum Cancer Centre | 2014
Aim: 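Genes whose loss kills vorinostat-resistant colon cancer cells under vorinostat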 (primary screen). System: human HCT116-VR colon cancer cells, selected for vorinostat resistance. Reagent: siRNA pool against human genes, 40 nM siRNA pool. Duration: vorinostat for 24 h, read-out about 72 h after transfection. Challenge: vorinostat at 2.5 µM final. Measured: 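Two measures, CellTiter-Fluor viability and luminescent caspase 3/7 activity, each as fold change against same-plate mock wells, mean of duplicates, then screen-wide robust z-score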. Scale: viability robust z-score: higher = more viable cells than screen typical; caspase robust z-score: higher = more caspase 3/7 activity than screen typical. Hit rule: 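Hits are knock-downs in viability class RV1/RV2 or caspase class CA1/CA2, excluding ones that killed cells in the no-drug cell-count arm; hits then retested with single siRNAs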.
Here is an unselected part of about 18,000 deposited reagents. Over the whole deposit, 450 (2.5%) were called active. 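Single biological run; no consistent viability z cut-off exists, so the class columns, not z-scores, define the calls.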 Unmarked entries are inactive.

gene knocked down	viability hit class	caspase hit class	viability robust z-score	caspase robust z-score
KIFC1	no change	no change	0.74	3.36
ZSWIM2	no change	no change	-0.26	-0.66
SPRTN	no change	no change	0.6	0.22
KIF26A	no change	no change	0.48	1.36
BMP1	no change	no change	0.06	-0.11
CAP1	no change	no change	-0.12	-0.59
CARINH	no change	no change	0.06	-1.19
GPATCH4	no change	no change	-1.04	-1.05
TMEM231	no change	no change	-0.08	0.23
CCDC71L	no change	no change	0.2	0.24
CPT1B	no change	no change	-0.04	-0.16
PGLYRP4	no change	no change	-0.02	-0.73
C19orf73	no change	no change	0.9	0.05
NRG3	no change	no change	0.66	-0.77
ZNF431	no change	no change	1.09	-0.13
NSMCE3	no change	no change	-1.06	1.87
PPP1R14B	no change	no change	0.84	-0.14
ELMO1	no change	no change	-0.53	-0.33
GINS2	no change	no change	-0.76	-1.06
TRIP13	no change	no change	-0.36	0.21
MEI1	no change	no change	-1.19	0.18
TPRKB	no change	no change	-1.33	-1.01
ZNF101	no change	no change	0.01	-0.87
F2RL3	no change	no change	-1.63	0.36
AKAP6	no change	no change	-0.59	-0.36
FKTN	no change	no change	0.99	-0.08
SNTA1	no change	no change	-1.12	-0.2
CSTPP1	no change	no change	1.02	-0.12
PDCD5	no change	no change	-1.92	0.98
TMEM208	no change (active)	CA1 (caspase activation)	0.6	5.23
TMEM26	no change	no change	0.28	1.57
LRRC20	no change	no change	-0.68	2.63
TLK1	no change	no change	0.48	1.44
MARCHF11	no change	no change	0.64	0.41
GLB1	no change	no change	0.03	0.26
FGF14	no change	no change	-1.17	-0.15
SKI	no change	no change	1.66	1.77
SPAST	no change	no change	-0.46	-1.09
LY6S-AS1	no change	no change	-3.72	-0.83
COL11A2	no change (active)	CA2 (caspase activation)	-1.83	5.52
TPT1	no change	no change	0.92	-1.12
GANC	no change	no change	-0.01	3.69
H3-3B	no change	no change	0.02	-0.92
IFIH1	no change	no change	0.25	-1.05
CD200	no change	no change	-0.64	0.02
FNDC9	no change	no change	-1.33	0.74
PROSER1	no change	no change	-2.42	1.08
KRTAP10-11	no change	no change	-1.28	-0.21
STAT2	no change	no change	-0.8	-0.64
SPNS1	no change	no change	-0.01	4.13
FAM24B	no change	no change	-0.24	1.53
CHD8	no change	no change	-0.58	2.21
CDK2AP2	no change	no change	-0.36	-0.16
USP50	no change	no change	0.54	0.31
TSPYL1	no change	no change	-0.19	-1.04
LAGE3	no change	no change	0.96	-0.24
H2AC11	no change	no change	-0.26	3.19

In a second layout: 6 of the entries above.
gene knocked down | viability hit class | caspase hit class | viability robust z-score | caspase robust z-score
TLK1 | no change | no change | 0.48 | 1.44
MARCHF11 | no change | no change | 0.64 | 0.41
GLB1 | no change | no change | 0.03 | 0.26
FGF14 | no change | no change | -1.17 | -0.15
SKI | no change | no change | 1.66 | 1.77
SPAST | no change | no change | -0.46 | -1.09
